3 compounds from PMC4491109, “Synthesis and anticonvulsant activity of new N-phenyl-2-(4-phenylpiperazin-1-yl)acetamide derivatives” (Medicinal Chemistry Research, 2015) can be followed below.

This data set concerns maximal electroshock (MES) seizures. Kind of data set: MES test after oral administration in rats (screen and quantification). The data set is classed as in vivo. The conditions noted are these: p.o. As for the experimental part: This screen discloses the time of onset, the approximate time of peak effect (TPE) and the duration of anticonvulsant activity or neurotoxicity.
The quantitative evaluation of the MES median effective dose (ED50) and toxic dose (TD50) was performed at previously estimated TPE—2 h.
Phase I of the in vivo studies involved three tests: MES, scPTZ and rotarod test for NT. Male albino mice (CF#1 strain, weighing 18–25 g) and male albino rats (Sprague–Dawley) were used as experimental animals. The animals were housed in metabolic cages and allowed free access to food and water. The compounds were injected intraperitoneally to mice as a suspension in 0.5 % methylcellulose/water mixture at a dose level 30, 100 or 300 mg/kg with anticonvulsant activity and neurotoxicity assessment at 0.5 and 4 h after administration. Promising derivatives from phase I underwent phase VIa in which they were administrated orally into rats at a fixed dose of 30 mg/kg for both MES and the rotarod toxicity determination at five pretreatment times: 0.25, 0.5, 1, 2, 4 h. Groups of eight mice or four rats are employed.
In the MES screen, an electrical stimulus of 0.2 s in duration (50 mA in mice and 150 mA in rats) is delivered via corneal electrodes primed with an electrolyte solution containing an anesthetic agent. The endpoint is the tonic extension of the hind limbs. […] Mice not displaying hind limb tonic extension are considered to be protected from seizures.
For `Cl.O=C(CN1CCN(c2cccc(C(F)(F)F)c2)CC1)Nc1cccc(C(F)(F)F)c1` [Compound 20, N-[3-(Trifluoromethyl)phenyl]-2-[4-[3-(trifluoromethyl)phenyl]piperazin-1-yl]acetamide monohydrochloride], the “TPE (time to peak effect)” value is listed as 2 h.

On to `O=C1NC(=O)C(c2ccccc2)(c2ccccc2)N1` [Phenytoin, reference compound], for which the “TPE (time to peak effect)” value was 1 h.

For the compound `CCCC(CCC)C(=O)O` [Valproic acid], the “TPE (time to peak effect)” value is listed as 1 h.
